Experimental data as given in PubChem BioAssay AID2685 (National Center for Advancing Translational Sciences (NCATS), 2010).
This is one part of the list. Shown are side measurements of this screen, not its main read-out; they come without a call. The list favours compounds with an active or inconclusive main result. Potencies come from curve fits of mixed quality, noted in brackets.

Test: qHTS Assay for Lipid Storage Modulators in Drosophila S3 Cells;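 for cell number change: cells counted by Cell Tracker Red CMTPX staining in the red channel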
Conditions: BODIPY lipid droplet fluorescence, 18-24 h; for cell number change: measured here: cell count max response, cells fed with added oleic acid
Method in brief: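 Drosophila S3 cells loaded with oleic acid (400 uM, as added) and compounds at several concentrations; lipid droplets imaged by 488-nm laser-scanning cytometry, 500–530 nm intensity and object ratio to cell channel. Percent activity normalized to 20 uM Triacsin C.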

[1] = measured here: lipid fluorescence (Fed channel) AC50, cells fed with added oleic acid
[2] = measured here: cell number channel AC50, cells fed with added oleic acid

SMILES	cell number change [%]	AC50 [1]	AC50 [2]
CN(CCCNC(=O)C1CCC(CNS(=O)(=O)c2ccccc2)CC1)Cc1ccccc1 (stereo not drawn)	19.8		
O=C(COC(=O)C1(c2ccccc2F)CCCC1)N1CCN(C(=O)c2ccco2)CC1	-2.31		
CCC1CCCCN1C(=O)COC(=O)c1ccc(Br)o1 (stereo not drawn)	-5.49	23.1 µM [falling, single point]	
O=C(CSc1ccc(F)cc1)Nc1ccc(N2CCOCC2)c(Cl)c1	-10.1	4.61 µM [rising, single point]	
COc1cccc(C(=O)Nc2cccc3cccnc23)c1OC	-2.35		
CCCCN(C(=O)/C=C/c1ccco1)c1c(N)n(CC(C)C)c(=O)[nH]c1=O	-23.4	32.6 µM [falling, single point]	
Cc1ccc(OCC(=O)N2CCCCC2)c(Br)c1	-0.337	0.0326 µM [falling, full curve, poor fit]	
O=C(COC(=O)Cc1ccc(S(=O)(=O)N2CCOCC2)s1)NCc1ccc(Cl)cc1		2.31 µM [falling, partial curve]	
O=S(=O)(NC1CC1)c1ccc(S(=O)(=O)N2CCCC(c3nc(-c4cccnc4)no3)C2)cc1 (stereo not drawn)	-25.8	0.651 µM [rising, full curve]	
CCCn1c(N)c(C(=S)NC(=O)C2CC2)c(=O)n(C)c1=O	-38.7	0.0164 µM [falling, full curve]	0.013 µM [falling, full curve, poor fit]
Cn1c(=O)n(C)c2cc(NS(C)(=O)=O)ccc21	0.429	0.0731 µM [falling, full curve, poor fit]	
O=C1C=C(c2ccc(Oc3ccccc3)cc2)C[C@@H](c2ccc(Cl)cc2)C1	7.63		0.0731 µM [falling, single point]
Cc1ccc(NC(=O)c2ccc(Cl)c(S(=O)(=O)N3CCCCCC3)c2)nc1	1.02	2.59 µM [rising, single point]	
[O-]/C(=C(\C(=S)NCc1ccc2c(c1)OCO2)[n+]1ccccc1)c1ccc(Cl)s1	-10.7		4.11 µM [rising, single point]
Cc1ccccc1C(=O)Nn1cnnc1	3.81	20.6 µM [rising, single point]	
CN1CCN(C(=S)NC(=O)/C=C/c2ccccc2)CC1	7.4	0.82 µM [falling, full curve]	
CCN(CC)C(=O)n1cnc(-c2ccccc2)c1-c1ccccc1	15.5	3.66 µM [rising, full curve]	
Cc1ccc(NC(=O)Nc2ccc3c(c2)OCO3)nc1	7.09	1.64 µM [rising, single point]	

Whole records as entered above:
O=C(COC(=O)C1(c2ccccc2F)CCCC1)N1CCN(C(=O)c2ccco2)CC1 is listed as cell number change [%]: -2.31
O=C(CSc1ccc(F)cc1)Nc1ccc(N2CCOCC2)c(Cl)c1 is listed as cell number change [%]: -10.1; AC50 [1]: 4.61 µM [rising, single point]
